According to EP3845551A1:
No constants are given. Whether binding was seen depends on the method and setting. Some binding calls cover weakened binding; strength is not graded here.

T1: ATF3 (activating transcription factor 3) protein (UniProt P18847)
T1 sequence (looked up): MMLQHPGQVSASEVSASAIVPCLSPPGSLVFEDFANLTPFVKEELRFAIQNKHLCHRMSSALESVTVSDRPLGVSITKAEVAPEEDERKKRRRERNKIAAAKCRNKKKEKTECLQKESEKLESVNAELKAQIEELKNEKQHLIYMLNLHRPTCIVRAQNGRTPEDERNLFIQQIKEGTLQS

B1: ABP2 peptide (SEQ ID NO: 2), biotin-labeled (peptide)
peptide: MLDTNIQSRPNL
modifications: biotin-labeled with EZ-link sulfo-NHS-biotin (site not stated)
B2: ABP3 peptide (SEQ ID NO: 3), biotin-labeled (peptide)
peptide: TLGLRPVPVATT
modifications: biotin-labeled with EZ-link sulfo-NHS-biotin (site not stated)
B3: ABP4 peptide (SEQ ID NO: 4), biotin-labeled (peptide)
peptide: VLNIPEHFTAQN
modifications: biotin-labeled with EZ-link sulfo-NHS-biotin (site not stated)
B4: ABP1 peptide (SEQ ID NO: 1), biotin-labeled (peptide)
peptide: AESPLTNRGWNP
modifications: biotin-labeled with EZ-link sulfo-NHS-biotin (site not stated)

biological target: T1, ATF3 (activating transcription factor 3) protein; assay: avidin-biotin complex binding assay; ATF3 coated on plate, biotinylated peptide 10-100 uM, ExtrAvidin-peroxidase, absorbance 405 nm

Row | binding | Binder
1 | binds | B1
2 | binds | B2
3 | binds | B3
4 | binds | B4
